{
  "source": "patent US7172751B2",
  "about": "“D-amino acid peptides” (Immunomedics, Inc., priority 2003, dated 2007)",
  "key": {"[1]": {"tested_on": "m679×hMN14 antibody", "test": "Binding of 111In labeled peptide to bispecific antibody m679×hMN14 (size exclusion HPLC)", "settings": "for binding to m679×hMN14 antibody (size exclusion HPLC): 111In labeled"}, "[2]": {"tested_on": "hMN-14×734", "test": "Antibody binding study with hMN-14×734", "settings": "In-111 labeled"}, "[3]": {"tested_on": "m679×hMN14 antibody", "test": "Binding to m679×hMN14 after incubation of 111In peptide in human serum (size exclusion HPLC)"}, "[4]": {"tested_on": "679 IgG", "test": "Binding of 111In labeled peptide to excess 679 IgG (size exclusion HPLC)", "settings": "111In labeled kit"}},
  "note": "“Also recorded” adds a separate entry of the source. At least one peptide structure holds a part that was inferred or is arguable (an end, a ring closure or a residue). *1 amine or outer side, *2 acyl side, *3 side chain or, on linkers, in order; H or OH if unused. Where a SMILES comes first, the peptide text is derived from it. Side-chain parts run from the residue outwards. [ ]: non-standard residue; d: D form. The star is where a group is joined. DOTA = O=C(O)CN1CCN(CC(=O)O)CCN(CC(=O)*)CCN(CC(=O)O)CC1; NH(2-(imidazol-4-yl)ethyl) = c1ncc(CCN*)[nH]1; Suc = O=C(CCC(=O)[*:2])[*:1]",
  "data": [
    {"smiles": "NC(=O)[C@@H](CCCCNC(=O)CNC(=O)CCC(=O)NCCc1cnc[nH]1)NC(=O)[C@@H](CCC(=O)O)NC(=O)[C@@H](CCCCNC(=O)CNC(=O)CCC(=O)NCCc1cnc[nH]1)NC(=O)[C@@H](CCC(=O)O)NC(=O)CN1CCN(CC(=O)O)CCN(CC(=O)O)CCN(CC(=O)O)CC1", "note": "[IMP 277, DOTA-D-Glu-D-Lys(HSG)-D-Glu-D-Lys(HSG)-NH2] ({DOTA}-[dE][dK]([Gly-Suc-NH(2-(imidazol-4-yl)ethyl)])[dE][dK]([Gly-Suc-NH(2-(imidazol-4-yl)ethyl)])-NH2)", "values": [
      {"measurement": "binding to hMN-14×679 bispecific antibody", "setting": "[1]; In-111 labeled", "value": "can bind two hMN-14×679 bispecific antibodies"},
      {"measurement": "binding to hMN-14×734", "setting": "[2]", "value": "does not bind"}
    ]},
    {"smiles": "NC(=O)[C@@H](CCCCNC(=O)CNC(=O)CCC(=O)NCCc1cnc[nH]1)NC(=O)[C@@H](Cc1ccc(O)cc1)NC(=O)[C@@H](CCCCNC(=O)CNC(=O)CCC(=O)NCCc1cnc[nH]1)NC(=O)[C@@H](Cc1ccccc1)NC(=O)CN1CCN(CC(=O)O)CCN(CC(=O)O)CCN(CC(=O)O)CC1", "note": "[IMP 284, DOTA-D-Phe-D-Lys(HSG)-D-Tyr-D-Lys(HSG)-NH2] ({DOTA}-[dF][dK]([Gly-Suc-NH(2-(imidazol-4-yl)ethyl)])[dY][dK]([Gly-Suc-NH(2-(imidazol-4-yl)ethyl)])-NH2)", "values": [
      {"measurement": "binding to m679×hMN14 antibody (size exclusion HPLC)", "setting": "[1]; antibody/peptide ratio of 10:1", "value": "mostly dibound but some monobound peptide as well"},
      {"measurement": "binding to m679×hMN14 antibody (size exclusion HPLC)", "setting": "[1]; antibody/peptide ratio of 19.7:1", "value": "mostly dibound and a small amount of what may be monobound peptide"},
      {"measurement": "binding to m679×hMN14 after incubation in human serum", "setting": "[3]; antibody/peptide ratio of 20:1", "value": "look similar to those of the peptide with the antibody alone"},
      {"measurement": "binding to m679×hMN14 after incubation in human serum", "setting": "[3]; antibody/peptide ratio of 22.3:1, at start and 16 or 18 hrs. later", "value": "look similar to those of the peptide with the antibody alone"}
    ]},
    {"smiles": "NC(=O)[C@H](CCCCNC(=O)CNC(=O)CCC(=O)NCCc1cnc[nH]1)NC(=O)[C@H](Cc1ccc(O)cc1)NC(=O)[C@H](CCCCNC(=O)CNC(=O)CCC(=O)NCCc1cnc[nH]1)NC(=O)[C@H](Cc1ccccc1)NC(=O)CN1CCN(CC(=O)O)CCN(CC(=O)O)CCN(CC(=O)O)CC1", "note": "[IMP 237, DOTA-Phe-Lys(HSG)-Tyr-Lys(HSG)-NH2] ({DOTA}-FK([Gly-Suc-NH(2-(imidazol-4-yl)ethyl)])YK([Gly-Suc-NH(2-(imidazol-4-yl)ethyl)])-NH2)", "values": [
      {"measurement": "binding to excess 679 IgG by size exclusion HPLC", "setting": "[4]", "value": "completely bound"}
    ]},
    {"smiles": "C[C@@H](NC(=O)CN1CCN(CC(=O)O)CCN(CC(=O)O)CCN(CC(=O)O)CC1)C(=O)N[C@H](CCCCNC(=O)CNC(=O)CCC(=O)NCCc1cnc[nH]1)C(=O)N[C@H](CCC(=O)O)C(=O)N[C@H](CCCCNC(=O)CNC(=O)CCC(=O)NCCc1cnc[nH]1)C(N)=O", "note": "[IMP 281, DOTA-D-Ala-D-Lys(HSG)-D-Glu-D-Lys(HSG)-NH2] ({DOTA}-[dA][dK]([Gly-Suc-NH(2-(imidazol-4-yl)ethyl)])[dE][dK]([Gly-Suc-NH(2-(imidazol-4-yl)ethyl)])-NH2)", "values": [
      {"measurement": "binding to m679×hMN14 antibody (size exclusion HPLC)", "setting": "[1]; antibody/peptide ratio of 10:1", "value": "mostly bis-antibody bound but some mono-antibody bound peptide; also recorded: mostly dibound but some monobound peptide as well"},
      {"measurement": "binding to m679×hMN14 after incubation in human serum", "setting": "[3]; antibody/peptide ratio of 10:1, 1 hr and 20 hrs", "value": "look similar to those of the peptide with the antibody alone"},
      {"measurement": "binding to m679×hMN14 after incubation in human serum", "setting": "[3]; antibody/peptide ratio of 20:1", "value": "look similar to those of the peptide with the antibody alone"}
    ]}
  ]
}
